According to publication doi:10.1101/2020.05.27.118315:
No constants are given. Whether binding was seen depends on the method and setting. For some assays here: In cells and extracts the contact can be indirect. Some entries that bind do so weakly or less than the wild type. Sequences can lack the tags named with a protein.

T1: GFP-Snx4 (S. cerevisiae) (UniProt P47057)
T1 sequence: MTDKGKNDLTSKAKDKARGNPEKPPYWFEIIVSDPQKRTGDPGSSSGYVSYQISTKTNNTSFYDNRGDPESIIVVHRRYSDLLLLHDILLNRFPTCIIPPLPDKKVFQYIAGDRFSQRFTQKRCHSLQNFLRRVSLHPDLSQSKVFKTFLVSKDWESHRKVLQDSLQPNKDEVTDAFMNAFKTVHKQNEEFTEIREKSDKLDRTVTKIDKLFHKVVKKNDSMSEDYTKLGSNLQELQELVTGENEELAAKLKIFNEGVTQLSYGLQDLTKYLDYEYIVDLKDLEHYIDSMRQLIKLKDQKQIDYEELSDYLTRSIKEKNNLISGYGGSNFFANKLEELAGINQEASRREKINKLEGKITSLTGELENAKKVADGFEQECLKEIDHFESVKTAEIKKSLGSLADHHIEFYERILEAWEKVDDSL

T2: Gal4-BD-Snx4 (S. cerevisiae) (UniProt P47057)
T2 sequence: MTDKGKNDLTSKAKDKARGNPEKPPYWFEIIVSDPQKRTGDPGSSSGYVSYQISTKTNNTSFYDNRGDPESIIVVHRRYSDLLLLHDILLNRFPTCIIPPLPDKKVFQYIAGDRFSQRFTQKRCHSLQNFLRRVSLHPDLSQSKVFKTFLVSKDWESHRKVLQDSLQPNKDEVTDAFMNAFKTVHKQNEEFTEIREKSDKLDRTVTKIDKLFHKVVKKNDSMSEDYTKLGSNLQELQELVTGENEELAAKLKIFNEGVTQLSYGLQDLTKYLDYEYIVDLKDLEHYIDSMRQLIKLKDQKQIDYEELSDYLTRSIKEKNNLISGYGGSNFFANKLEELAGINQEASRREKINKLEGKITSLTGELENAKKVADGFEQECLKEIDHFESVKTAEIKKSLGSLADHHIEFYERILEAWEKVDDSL


Key:
GFP-Snx4 (S. cerevisiae) = molecular target: T1, GFP-Snx4 (S. cerevisiae); assay: co-IP
[1] = molecular target: T2, Gal4-BD-Snx4 (S. cerevisiae); assay: two-hybrid

binding (GFP-Snx4 (S. cerevisiae)) | binding [1] | Binder
binds |  | Med13-3xHA (protein, UniProt P38931 1-1420) MSSDASTYRLEDVLSSFYRVEKIKKINYHQYISKAQNDQWSIQMEFMLRKQDPKTLVALLSRDLWCFSINDDPVPTPPAIEHKPVSPDKIGTFTADYSKPNLPPHYALFLKALRRKIYINLALGSHNKLIQFGNACISLSGVPNYLVQLEPHLFVNGDLTVSLCAKNMGLVPMKEENLEESFLSKHALYLAPSGIRMHLAPASKQGYLITPPKHTELLLTTLSVSHGINLQNKKNLKWVAVVPDLGHLNGHTPTIASYLTPLLEAKKLVWPLHLIFAQPVADIENSTSGDPSEFHCLQDALDAIDDFIQLKQTAAYRTPGSSGVLSSNIAGTNPLSSDGAYTEQFQHYKNNSISSQPASYHSVQETNKISPKDFSPNFTGIDKLMLSPSDQFAPAFLNTPNNNINENELFNDRKQTTVSNDLENSPLKTELEANGRSLEKVNNSVSKTGSVDTLHNKEGTLEQREQNENLPSDKSDSMVDKELFGEDEDEDLFGDSNKSNSTNESNKSISDEITEDMFEMSDEEENNNNKSINKNNKEMHTDLGKDIPFFPSSEKPNIRTMSGTTKRLNGKRKYLDIPIDEMTLPTSPLYMDPGAPLPVETPRDRRKSVFAPLNFNPIIENNVDNKYKSGGKFSFSPLQKEEALNFDISMADLSSSEEEEDEEENGSSDEDLKSLNVRDDMKPSDNISTNTNIHEPQYINYSSIPSLQDSIIKQENFNSVNDANITSNKEGFNSIWKIPQNDIPQTESPLKTVDSSIQPIESNIKMTLEDNNVTSNPSEFTPNMVNSEISNLPKDKSGIPEFTPADPNLSFESSSSLPFLLRHMPLASIPDIFITPTPVVTISEKEQDILDLIAEQVVTDYNILGNLGIPKIAYRGVKDCQEGLITTTMLQLFSTFDRLNGNDTISKFYNMKQPYVFVKKHHELIKVKHDSQPFIKFLNFRPPNGIKNFKSLLLSSSFKEDCLSFAPTLSQTYINQELGFCELLKLTNEDPPGLMYLKAFDKNKLLLLAAQIVSYCSNNKNSIKNVPPILIILPLDNATLTELVDKANIFQVIKNEVCAKMPNIELYLKVIPMDFIRNVLVTVDQYVNVAISIYNMLPPKSVKFTHIAHTLPEKVNFRTMQQQQMQQQQQQQQQQQNNSTGSSSIIYYDSYIHLAYSRSVDKEWVFAALSDSYGQGSMTKTWYVGNSRGKFDDACNQIWNIALNLASKKFGKICLILTRLNGILPDDELMNWRRLSGRNIHLAVVCVDDNSKISFIDEDKLYPSFKPIYKDTRFGGRMDMTRLYDYEIRDIDQDIHGIVFQHPFPLAHSQHRCAIRSGALIKFKKCDGDTVWDKFAVNLLNCPHSDSTQLLETILEEFRNLAALNVWYGLSDGEDGHIPWHILAVKKMMNTLVHTRVKIANTSAATVHTATSSSIILSDK
 | binds | Gal4-AD-Med13^907-1163 (domain or fragment, UniProt P38931 907-1163) KFYNMKQPYVFVKKHHELIKVKHDSQPFIKFLNFRPPNGIKNFKSLLLSSSFKEDCLSFAPTLSQTYINQELGFCELLKLTNEDPPGLMYLKAFDKNKLLLLAAQIVSYCSNNKNSIKNVPPILIILPLDNATLTELVDKANIFQVIKNEVCAKMPNIELYLKVIPMDFIRNVLVTVDQYVNVAISIYNMLPPKSVKFTHIAHTLPEKVNFRTMQQQQMQQQQQQQQQQQNNSTGSSSIIYYDSYIHLAYSRSVDKE
